Test results: paper PMC12040169 (PLOS Biology, 2025)
This is one part of the list.

system: T1, CTL2-GFP (C. trachomatis L2/434/Bu, GFP-expressing); set-up: species or system HeLa; Intracellular C. trachomatis growth in HeLa cells, bulk GFP fluorescence relative to DMSO; settings: bulk GFP, single well; 28.5 h, 10 µM; inhibitor
T1 construct: L2/434/Bu, GFP-expressing

| Compound | % of control remaining [%] |
| --- | --- |
| Cc1ccc(C(=O)CC(C(=O)O)P(=O)(c2ccccc2)c2ccccc2)cc1 (stereo not shown) [CBK265022] | 107.036 |
| CCOC(=O)c1nc(-c2ccccc2)sc1C(C)=O [CBK067739] | 101.155 |
| O=C(NCCOc1ccccc1)NC(=O)C1CCNCC1 [CBK088187T] | 106.022 |
| CS(=O)(=O)Nc1nccnc1OC1CCN(CCCO)CC1 [CBK084275] | 108.41 |
| CC1(C)CC(=O)c2sc(NC(=O)c3cccc(C(F)(F)F)c3)nc2C1 [CBK019941] | 100.099 |
| C#CCNC(=O)[C@H]1O[C@H](CCN2CCOCC2)CC[C@@H]1O [CBK288729] | 144.752 |
| CC(C)(C)OC(=O)N1CCCC2(CCCN(C(=O)c3ccco3)C2)C1 (stereo not shown) [CBK284463] | 127.641 |
| O=C(c1cncnc1)N1CCC2(CCN(Cc3ccccc3)CC2)C1 [CBK136782] | 122.238 |
| CS(=O)(=O)Nc1nccnc1N1CCNCC1 [CBK074045T] | 109.085 |
| CN1CCN(C(=O)c2ccc(-c3ccccc3)nc2NCCc2ccccn2)CC1 [CBK076550] | 100 |
| COc1nc(N)nc(C/C(=N\NC(=O)c2cccnc2)C2CC2)n1 [CBK019872] | 109.85 |
| COCCCn1c(=O)[nH]c2ncc(-c3cc(OC)c(OC)c(OC)c3)nc21 [CBK064937] | 200.789 |
| Cc1ccc(CNCCNCCO)s1 [CBK278168C] | 137.775 |
| CC(C)c1ccc(SCCc2ccccn2)cc1 [CBK026575C] | 123.813 |
| Cc1cc2c(s1)c1cnn(CC(=O)NC(C)C)c(=O)c1n2C [CBK284155] | 119.104 |
| COc1ccc([C@H]2CN(Cc3ccccc3)[C@@H]3CCN(C(=O)c4ccccc4F)C[C@H]23)cc1 [CBK285542] | 113.205 |
| Cn1c(=O)c2c(ncn2CC(=O)Nc2cccc3ccccc23)n(C)c1=O [CBK133515] | 136.475 |
| Cn1c(C(=O)OCC(=O)NC(C)(C)C)cc2occc21 [CBK284015] | 83.6663 |
| O=C(O)CCCC(=O)NC12CC3CC(CC(C3)C1)C2 [CBK286958] | 117.643 |
| CC(C)CC(=O)N1C[C@H]2NC(=O)c3ccccc3C(=O)[C@@]2(C)C1 [CBK281659] | 114.474 |
| CN1C(C(=O)O)=CC(c2ccc(F)cc2)=NS1(=O)=O [CBK287016] | 111.371 |
| O=C(C[C@@H]1CCNC[C@@H]1Cc1cc(CN2CCCCC2)on1)N1CCCCC1 [CBK289153] | 137.394 |
| O=C(Nc1ccccc1N1CCNCC1)C1CCC1 [CBK004755T] | 90.0549 |
| COc1cc(CN2CCC(N3CCN(c4ccccc4)CC3)CC2)ccc1OCc1ccccc1 [CBK264655G] | 100 |
| COC(=O)COc1ccc(Oc2nc(N(C)C)nc(N3CCOCC3)n2)nn1 [CBK267258] | 184.184 |
| O=S(=O)(NCc1ccco1)N1CCOCC1 [CBK268749] | 132.214 |

Looked up by compound from above, 4 records:

| Compound | % of control remaining [%] |
| --- | --- |
| CN1CCN(C(=O)c2ccc(-c3ccccc3)nc2NCCc2ccccn2)CC1 [CBK076550] | 100 |
| CCOC(=O)c1nc(-c2ccccc2)sc1C(C)=O [CBK067739] | 101.155 |
| Cc1ccc(C(=O)CC(C(=O)O)P(=O)(c2ccccc2)c2ccccc2)cc1 (stereo not shown) [CBK265022] | 107.036 |
| CS(=O)(=O)Nc1nccnc1N1CCNCC1 [CBK074045T] | 109.085 |

Remaining list, next part.

| Compound | % of control remaining [%] |
| --- | --- |
| CC(NC(=O)Nc1ccc(C(=O)NC(C)(C)C)cc1)c1cccc(Cl)c1 (stereo not shown) [CBK298265] | 111.51 |
| CC(C)(C)c1csc(NCc2c(O)ccc3ccccc23)n1 [CBK078381] | 54.5508 |
| CSc1ccc(-c2nccnc2OCCC(C)C)cc1 [CBK106802] | 96.221 |
| COc1cccc(-c2cnc3[nH]c(=O)n(CCCO)c3n2)c1 [CBK065036] | 101.508 |
| COc1ccc(S(=O)(=O)N(CC(=O)N2CCC(C(N)=O)CC2)c2ccccc2)cc1 [CBK265301] | 93.1184 |
| Cc1nc(CC(=O)N2CCC[C@@H]3NC(=O)c4ccccc4OCCCCC[C@@H]32)cs1 [CBK292113] | 132.517 |
| CC(CSSCC(C)C(=O)O)C(=O)O (stereo not shown) [CBK260940] | 103.067 |
| OC[C@H]1O[C@@H](n2cnc3c(Cl)nccc32)C[C@H]1O [CBK201273] | 131.722 |
| CCn1c(C)nnc1SCCNC(=O)c1cnc(N(C)C)nc1C [CBK307135] | 130.742 |
| Cn1c(=O)c2c(=S)[nH]c(-c3ccccc3)nc2n(C)c1=O [CBK288422] | 105.764 |
| O=C(O)CCC(=O)c1cccc([N+](=O)[O-])c1 [CBK263681] | 121.128 |
| O=C1/C(=C/c2c(NCCCn3ccnc3)nc3ccccn3c2=O)SC(=S)N1CC1CCCO1 (stereo not shown) [CBK111310] | 100 |
| Cc1cccc2c3c([nH]c12)C1(CCCN(C/C=C\c2ccccc2)C1)N(C=O)CC3 (stereo not shown) [CBK040265] | 152.907 |
| COc1ccccc1CN(CC(C)(C)CN)C(=O)NC1C[C@H]1c1ccccc1 (stereo partly shown) [CBK002424C] | 116.846 |
| COc1ccc(OCCNC(=O)c2ccc(-c3ccccc3C)nc2N2CCN(C(=O)c3ccco3)CC2)cc1 [CBK076207] | 155.628 |
| O=c1[nH]cc(-c2ccc(F)cc2)cc1CNCc1ccccc1F [CBK284696] | 112.794 |
| COc1ccccc1N1CCN(CC(=O)Nc2cc(Cl)ccc2C)CC1 [CBK270087] | 97.6439 |
| CNC(=O)c1ccc(-n2ccnc2)c(-n2cccc2)c1 [CBK282461] | 135.42 |
| Cc1ccc(NC(=O)c2ccccc2NS(=O)(=O)c2cccc(C(=O)O)c2)cc1 [CBK296695] | 99.4209 |
| Nc1nnc(Sc2nc3ccccc3nc2N2CCCC2)s1 [CBK093750] | 134.267 |
| O=[N+]([O-])c1cc(Br)cc(/C=N/Nc2nc3ccccc3[nH]2)c1O [CBK263486] | 100 |
| Cc1ccc(-c2csc3ncnc(SCc4csc(C)n4)c23)cc1 [CBK267244] | 135.359 |
| CC(Oc1cccc(Cl)c1)n1cnnc1 (stereo not shown) [CBK022246] | 92.7548 |
| Cc1noc(C)c1CN1CC2CCN(c3ccccc3)C2C1 (stereo not shown) [CBK304847] | 107.085 |
| CSc1nncc(-c2ccc(Cl)cc2)n1 [CBK028747] | 118.985 |
| Nc1ncnc(Nc2cccc(C(F)(F)F)c2)n1 [CBK017403] | 117.696 |
